This passage reports binding results from publication PMC10415273.

Amino acid sequences for entries named in this document (tags omitted).
UniProt Q7Z434: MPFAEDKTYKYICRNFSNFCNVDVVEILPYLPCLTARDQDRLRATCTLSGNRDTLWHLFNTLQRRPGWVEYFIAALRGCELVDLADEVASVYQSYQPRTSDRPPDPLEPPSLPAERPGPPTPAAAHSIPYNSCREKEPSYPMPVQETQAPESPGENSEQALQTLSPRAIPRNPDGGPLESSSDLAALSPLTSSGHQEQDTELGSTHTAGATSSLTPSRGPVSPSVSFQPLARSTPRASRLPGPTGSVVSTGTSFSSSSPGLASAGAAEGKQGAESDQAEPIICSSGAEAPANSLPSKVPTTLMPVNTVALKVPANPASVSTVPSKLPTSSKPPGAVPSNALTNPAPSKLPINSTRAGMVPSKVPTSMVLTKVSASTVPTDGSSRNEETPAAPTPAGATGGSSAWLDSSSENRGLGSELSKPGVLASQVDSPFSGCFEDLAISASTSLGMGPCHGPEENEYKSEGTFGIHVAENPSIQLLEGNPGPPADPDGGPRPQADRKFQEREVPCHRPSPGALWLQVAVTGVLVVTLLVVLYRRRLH
UniProt O00463: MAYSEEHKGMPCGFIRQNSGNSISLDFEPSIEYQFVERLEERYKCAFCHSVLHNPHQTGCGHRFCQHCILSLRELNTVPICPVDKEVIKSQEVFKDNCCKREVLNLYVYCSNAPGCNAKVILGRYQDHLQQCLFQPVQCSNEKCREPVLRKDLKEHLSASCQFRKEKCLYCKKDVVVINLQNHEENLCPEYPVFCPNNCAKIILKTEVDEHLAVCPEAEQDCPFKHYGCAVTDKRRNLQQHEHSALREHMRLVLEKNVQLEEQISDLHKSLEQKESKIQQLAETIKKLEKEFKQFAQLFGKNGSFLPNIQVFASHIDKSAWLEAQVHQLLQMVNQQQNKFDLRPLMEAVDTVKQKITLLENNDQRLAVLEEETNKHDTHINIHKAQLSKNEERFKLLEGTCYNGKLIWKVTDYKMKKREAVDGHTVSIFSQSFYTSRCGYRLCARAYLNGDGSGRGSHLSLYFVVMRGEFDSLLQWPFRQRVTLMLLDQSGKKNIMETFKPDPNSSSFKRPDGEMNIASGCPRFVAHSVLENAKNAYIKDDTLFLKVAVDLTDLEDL
UniProt O14744: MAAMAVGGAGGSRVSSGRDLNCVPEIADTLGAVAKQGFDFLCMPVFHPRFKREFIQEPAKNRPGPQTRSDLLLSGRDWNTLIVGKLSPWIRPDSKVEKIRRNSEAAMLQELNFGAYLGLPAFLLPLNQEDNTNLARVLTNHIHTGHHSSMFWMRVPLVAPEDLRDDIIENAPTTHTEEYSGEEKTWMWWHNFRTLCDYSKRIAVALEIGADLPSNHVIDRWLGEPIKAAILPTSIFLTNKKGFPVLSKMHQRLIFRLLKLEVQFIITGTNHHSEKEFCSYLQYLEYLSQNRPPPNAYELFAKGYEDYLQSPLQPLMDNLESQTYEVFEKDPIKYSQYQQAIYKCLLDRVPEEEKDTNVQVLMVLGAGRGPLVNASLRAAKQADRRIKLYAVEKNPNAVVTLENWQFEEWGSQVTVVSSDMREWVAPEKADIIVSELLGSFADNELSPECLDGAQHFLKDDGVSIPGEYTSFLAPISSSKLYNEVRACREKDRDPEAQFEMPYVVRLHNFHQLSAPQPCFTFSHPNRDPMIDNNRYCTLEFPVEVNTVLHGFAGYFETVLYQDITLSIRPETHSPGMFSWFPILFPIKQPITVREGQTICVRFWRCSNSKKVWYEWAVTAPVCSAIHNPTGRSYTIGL
UniProt Q9BQA1: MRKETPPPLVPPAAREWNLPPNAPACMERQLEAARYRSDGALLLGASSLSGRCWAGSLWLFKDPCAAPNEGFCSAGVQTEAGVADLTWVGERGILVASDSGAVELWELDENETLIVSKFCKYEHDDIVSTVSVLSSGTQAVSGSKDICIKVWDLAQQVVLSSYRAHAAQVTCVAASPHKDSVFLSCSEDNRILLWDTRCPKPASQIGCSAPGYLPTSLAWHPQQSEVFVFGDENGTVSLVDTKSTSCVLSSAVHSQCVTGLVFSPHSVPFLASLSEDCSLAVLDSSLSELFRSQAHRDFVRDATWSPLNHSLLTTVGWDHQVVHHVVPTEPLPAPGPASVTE

Results are given in words; binding and its absence hold for the method and conditions named. Binding seen in cells or lysates may run through a third protein. Some binding calls cover weakened binding; strength is not graded here.

For assay [1], the target named is HA-MAVS (human) (UniProt Q7Z434). The assay can be described thus: co-IP; HEK293T co-transfected with tagged plasmids, harvested 36 h after transfection (with or without SeV); IP buffer with 1% Triton X-100; anti-FLAG M2 affinity gel or anti-HA agarose, 4 h at 4 °C; immunoblot. (A western blot detects proteins with antibodies after separation by electrophoresis.)
Assay [2] deals with T1, RIG-I (human) (UniProt O95786).
T1 sequence: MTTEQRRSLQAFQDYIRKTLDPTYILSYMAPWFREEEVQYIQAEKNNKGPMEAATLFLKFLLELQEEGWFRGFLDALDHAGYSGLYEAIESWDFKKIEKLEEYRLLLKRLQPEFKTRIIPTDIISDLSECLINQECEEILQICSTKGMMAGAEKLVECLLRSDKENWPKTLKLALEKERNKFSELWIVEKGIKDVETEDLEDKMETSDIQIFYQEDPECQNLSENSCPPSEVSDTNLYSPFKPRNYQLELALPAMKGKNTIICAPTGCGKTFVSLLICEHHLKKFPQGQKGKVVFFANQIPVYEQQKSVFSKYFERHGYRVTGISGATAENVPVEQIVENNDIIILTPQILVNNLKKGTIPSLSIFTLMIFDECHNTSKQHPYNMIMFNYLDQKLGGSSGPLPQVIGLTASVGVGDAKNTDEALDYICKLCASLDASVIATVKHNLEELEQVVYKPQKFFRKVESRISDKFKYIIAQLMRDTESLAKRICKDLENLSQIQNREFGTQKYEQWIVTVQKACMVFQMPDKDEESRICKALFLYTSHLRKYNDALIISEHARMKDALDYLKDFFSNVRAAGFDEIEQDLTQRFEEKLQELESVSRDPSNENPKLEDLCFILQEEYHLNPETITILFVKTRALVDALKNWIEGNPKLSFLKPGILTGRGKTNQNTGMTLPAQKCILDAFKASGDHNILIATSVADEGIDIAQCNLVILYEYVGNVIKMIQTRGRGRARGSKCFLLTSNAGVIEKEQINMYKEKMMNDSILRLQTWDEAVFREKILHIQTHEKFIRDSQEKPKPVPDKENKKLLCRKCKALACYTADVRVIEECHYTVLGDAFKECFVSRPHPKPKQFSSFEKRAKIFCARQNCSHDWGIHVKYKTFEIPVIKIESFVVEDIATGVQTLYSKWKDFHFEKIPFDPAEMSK
The assay is described as above.

Assay [3] concerns the target T2, TBK1 (human) (UniProt Q9UHD2).
T2 sequence: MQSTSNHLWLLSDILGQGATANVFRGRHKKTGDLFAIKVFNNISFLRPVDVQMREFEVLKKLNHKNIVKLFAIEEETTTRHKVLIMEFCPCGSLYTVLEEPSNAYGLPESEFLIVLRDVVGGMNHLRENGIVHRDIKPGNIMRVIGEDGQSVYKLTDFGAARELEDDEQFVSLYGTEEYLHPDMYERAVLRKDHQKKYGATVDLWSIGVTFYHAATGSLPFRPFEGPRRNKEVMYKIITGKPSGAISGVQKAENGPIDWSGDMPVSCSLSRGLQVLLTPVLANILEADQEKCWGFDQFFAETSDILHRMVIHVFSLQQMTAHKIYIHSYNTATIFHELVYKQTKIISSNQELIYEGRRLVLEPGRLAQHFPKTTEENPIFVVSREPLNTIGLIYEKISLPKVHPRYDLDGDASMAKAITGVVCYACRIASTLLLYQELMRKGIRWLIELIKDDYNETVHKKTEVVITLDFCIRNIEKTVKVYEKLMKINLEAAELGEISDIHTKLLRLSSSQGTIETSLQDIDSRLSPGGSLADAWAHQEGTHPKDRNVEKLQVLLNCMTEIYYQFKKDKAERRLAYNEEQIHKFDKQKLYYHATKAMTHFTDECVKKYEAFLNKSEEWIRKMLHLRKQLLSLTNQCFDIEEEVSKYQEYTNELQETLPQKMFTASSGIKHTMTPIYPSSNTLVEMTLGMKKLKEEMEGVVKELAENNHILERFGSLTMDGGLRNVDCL
Described as above.

The target in assay [4] is T3, TRAF2 (UniProt Q12933).
T3 sequence: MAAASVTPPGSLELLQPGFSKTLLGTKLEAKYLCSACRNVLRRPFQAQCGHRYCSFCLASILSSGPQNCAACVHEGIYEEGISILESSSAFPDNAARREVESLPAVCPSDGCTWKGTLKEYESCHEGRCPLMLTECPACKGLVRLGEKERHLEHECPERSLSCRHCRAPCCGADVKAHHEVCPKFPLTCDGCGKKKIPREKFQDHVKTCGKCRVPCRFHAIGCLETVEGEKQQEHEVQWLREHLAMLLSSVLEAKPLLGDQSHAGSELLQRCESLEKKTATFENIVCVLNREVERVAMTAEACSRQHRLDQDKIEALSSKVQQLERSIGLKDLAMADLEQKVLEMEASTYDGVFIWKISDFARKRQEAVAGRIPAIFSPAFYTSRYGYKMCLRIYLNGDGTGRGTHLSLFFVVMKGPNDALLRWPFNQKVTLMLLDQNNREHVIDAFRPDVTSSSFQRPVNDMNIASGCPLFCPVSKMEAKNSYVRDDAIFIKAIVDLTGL
The assay is described as above.

Assay [5] concerns the target TRAF5 (UniProt O00463). The assay is described as above.
Assay [6] addresses T4, endogenous MDA5 (human (endogenous in HEK293T)) (UniProt Q9BYX4).
T4 sequence: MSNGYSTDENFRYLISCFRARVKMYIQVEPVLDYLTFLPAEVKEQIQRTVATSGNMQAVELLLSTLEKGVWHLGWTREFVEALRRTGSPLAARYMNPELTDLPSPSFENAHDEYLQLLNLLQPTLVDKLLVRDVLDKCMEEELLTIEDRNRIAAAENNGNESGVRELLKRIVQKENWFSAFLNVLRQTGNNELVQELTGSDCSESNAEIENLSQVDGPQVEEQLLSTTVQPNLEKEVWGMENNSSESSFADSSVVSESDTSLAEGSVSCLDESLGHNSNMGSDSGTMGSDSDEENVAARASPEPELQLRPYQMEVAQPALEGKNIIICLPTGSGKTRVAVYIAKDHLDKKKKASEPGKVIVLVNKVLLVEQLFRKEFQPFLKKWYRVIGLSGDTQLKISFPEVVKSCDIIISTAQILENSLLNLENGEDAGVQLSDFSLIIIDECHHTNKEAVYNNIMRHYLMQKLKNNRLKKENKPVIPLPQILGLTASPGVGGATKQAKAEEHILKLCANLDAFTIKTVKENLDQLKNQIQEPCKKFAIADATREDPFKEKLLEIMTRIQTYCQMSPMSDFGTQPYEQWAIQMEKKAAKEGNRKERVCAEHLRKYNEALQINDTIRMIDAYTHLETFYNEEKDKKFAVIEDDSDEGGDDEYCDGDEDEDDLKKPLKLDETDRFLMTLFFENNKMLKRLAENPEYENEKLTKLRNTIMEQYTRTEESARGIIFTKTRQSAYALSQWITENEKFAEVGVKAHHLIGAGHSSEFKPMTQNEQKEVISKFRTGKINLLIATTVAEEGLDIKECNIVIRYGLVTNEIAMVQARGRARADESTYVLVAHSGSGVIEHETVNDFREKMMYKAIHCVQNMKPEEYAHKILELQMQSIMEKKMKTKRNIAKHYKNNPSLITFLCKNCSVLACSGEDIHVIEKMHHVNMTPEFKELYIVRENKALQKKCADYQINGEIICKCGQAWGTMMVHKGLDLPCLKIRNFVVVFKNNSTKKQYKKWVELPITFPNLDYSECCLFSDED
The assay can be described thus: co-IP; endogenous proteins in HEK293T (WT or WDR77-/-) with or without SeV or VSV, time course 0-32 h; protein G Plus-agarose with 1 µg antibody, 4 h; immunoblot.

The target in assay [7] is T5, endogenous RIG-I (human (endogenous in HEK293T)) (UniProt O95786).
T5 sequence: T1 sequence
The assay is described as above.

As to Flag-PRMT5 (from UniProt O14744 1-637), in assay [1], the binding result is reported as “binds”.

In the case of HA-WDR77 (from UniProt Q9BQA1 1-342), the binding result in assay [2], in assay [3], in assay [4] and in assay [5] was “no binding” throughout.

Take “endogenous WDR77 (from UniProt Q9BQA1 1-342)”: the binding result in assay [6] and in assay [7] was “no binding” throughout.
